## Screening data, single-dose tests

Sequences of proteins named here, by UniProt entry; tags and fusion partners are left off.
UniProt P9WPC5, whole entry: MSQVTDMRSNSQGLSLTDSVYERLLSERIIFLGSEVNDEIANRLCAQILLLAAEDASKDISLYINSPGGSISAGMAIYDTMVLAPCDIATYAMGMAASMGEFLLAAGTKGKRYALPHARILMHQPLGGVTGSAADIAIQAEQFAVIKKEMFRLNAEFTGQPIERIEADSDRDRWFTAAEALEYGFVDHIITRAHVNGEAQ
UniProt P9WPC3, whole entry partner: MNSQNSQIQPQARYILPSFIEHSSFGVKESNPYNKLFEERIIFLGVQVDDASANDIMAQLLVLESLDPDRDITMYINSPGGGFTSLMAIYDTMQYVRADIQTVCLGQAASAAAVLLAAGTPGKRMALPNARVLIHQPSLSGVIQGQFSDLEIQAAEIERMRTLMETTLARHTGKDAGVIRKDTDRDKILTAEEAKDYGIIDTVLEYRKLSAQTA

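Protease assay of ClpP1P2, read by the AMC dye that it sets free. Target: ClpP1P2, Mycobacterium tuberculosis (UniProt P9WPC5 and UniProt P9WPC3). Concentration: 50 µM. Higher reads as stronger inhibition, judged from the few compounds that gave an IC50. Most other retested compounds had strongly negative values. About 69,000 compounds were tested under these conditions; 0.015% (about 10) showed 50% or more at least once.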

Values are the deposited “Percent Effect”, in %.
How 0% and 100% were set is not recorded. Most values in the screen are low, and negative values occur.
Compounds were drawn at random from those tested, without regard to their results.

structure	percent effect
OC[C@H]1CN(Cc2c(Cl)cncc2Cl)C[C@H]1CN1CCOCC1	-5.979%
Clc1ccc(C2(CNC3=NCCN3)CCCC2)cc1	0.727%
CCN1CC2(CCC1=O)CCN(CCOc1ccc(F)cc1)CC2	5.304%
Cc1nn(C)c(=O)c2nn(-c3cccc(Cl)c3)c(C)c12	0.2174%
O=C(c1cnccn1)N1CCN(CC2CC2)c2ncccc2C1	-1.606%
CCCN(C(=O)c1ccccn1)c1nc2c(s1)CCc1c-2cnn1C	14.1%
CC(C)Oc1ncccc1CNC(=O)N1CCC(C(N)=O)C1 (stereo not shown)	8.423%
COc1ccnc(N2CCC3(CCCN(CC4CC4)C3=O)C2)n1 (stereo not shown)	-0.5935%
CC(=O)NCC(=O)N1C[C@@H](C)[C@@]2(CCN(c3ccsc3)C2=O)C1	0.8931%
Cc1ccccc1-n1cc(C2=CCN(CCn3cc[nH]c3=O)CC2)cn1	1.032%
Cc1ccc(CNC(=O)NC(C)Cn2cccn2)cn1 (stereo not shown)	-50.07%
CCN(CCc1ccccc1)Cn1nc(C)c2c(C)onc2c1=O	2.071%
NC(=O)C1CCN(C(=O)c2ccn(-c3ccc(F)cc3)n2)C1 (stereo not shown)	0.9976%
COCCc1ncc(CN2CCCC(C(=O)c3ccccc3)C2)cn1 (stereo not shown)	-3.317%
COc1cccc(CC(=O)N2CCCN(c3ccnc(C)c3)CC2)c1	-16.59%
CCCN(CCC)S(=O)(=O)N(C)Cc1ccncc1	0.6922%
O=C(Cc1ccsc1)N1CCCCC1c1ccn2ccnc2n1 (stereo not shown)	-6.795%
CN(Cc1ccco1)Cc1ccccc1CNC(=O)c1cnccn1	-7.607%
COC(=O)[C@@H]1Cc2ncn(C)c2CN1S(=O)(=O)c1ccc(OC)cc1	6.884%
Cc1nc2c(c(C)c1CC(=O)NCc1ccco1)c(=O)[nH]n2C	-35.85%
CC(C)(C)CN(CCC#N)C(=O)c1cccc(CN2CCCC2)c1	-0.5767%
CN(Cc1ccc2c(c1)OCCO2)Cc1nc2c(cnn2C)c(=O)[nH]1	-13.25%
c1cc(-c2noc(CN3CCc4c(ncn4C4CC4)C3)n2)cs1	-1.386%
Cc1c(C(=O)N2CCSCC2)sc2nc(C(F)(F)F)ccc12	5.504%
CC(=O)c1sc(C(NC(=O)c2ccccc2)C2CC2)nc1C (stereo not shown)	-3.283%
CSCC[C@H](N)c1nnc(SCc2cc(C)ccc2C)o1	0.2914%
COc1ccc(CCNC(=O)Cn2ncc3c2c(C)nn3C)cc1	0.9886%
Cc1ccc(C(=O)N2C[C@@H]3CCN(c4cccnc4)C[C@@H]3C2)cn1	-6.994%
CO[C@H]1CC[C@H]2[C@H]1OCCN2CCOCc1ccccc1	3.824%
CC(C)c1cc(C(=O)N2CCN(CC3CC3)[C@@H]3CS(=O)(=O)C[C@@H]32)on1	-8.743%
CCn1cc(C(=O)NCCN2CCCc3ccccc32)c(C)n1	-12.32%
Cc1cccc(N(CCC(N)=O)C(=O)c2ccnc(C)n2)c1	-1.817%
CCOc1cccnc1C(=O)N1CCCN(c2nc(C)cs2)CC1	-9.584%
CC(C)c1nnc2n1CCN(C(=O)c1ccc(N(C)C)nn1)C2	-10.05%
CN(Cc1ccco1)C[C@H]1OC[C@@H]2CCN(Cc3ccccn3)C[C@@H]21	-10.63%
CN1CCN(C2COC3(CCN(Cc4cccs4)CC3)C2)CC1 (stereo not shown)	16.45%
COc1ccc(OC)c(C2CCN(CC(C)(C)N3CCOCC3)C2)c1 (stereo not shown)	0.4646%
CCc1nc(CN2CCCN(CC(=O)Nc3cccnc3)CC2)no1	5.598%
Cc1cccc(C(=O)N2CCCN(Cc3cscn3)CC2)c1	-30.22%
O[C@H]1CN(Cc2ccnc(N3CCCC3)n2)CC[C@@]12CCCO2	7.512%
O=C(c1ccccn1)N1CCC(Nc2cccnn2)CC1	-6.648%
O=C(NCc1cc2n(n1)CCCN(Cc1ccc(CO)o1)C2)C1CCC1	-2.435%
Cc1nnc([C@@]23CCO[C@@H]2CCN(S(=O)(=O)c2cccnc2)C3)o1	-5.713%
CCOCC(=O)N1C[C@@H](NC(C)=O)[C@H](c2ccc(OC)cc2)C1	3.357%
Cn1nc(CN2CCCCC2)c2c1CN(C(=O)Nc1cccc(F)c1)C2	16.28%
CCC(Nc1ncccn1)c1ccc(OC)cc1 (stereo not shown)	-11.46%
C=C(C)CN1CCCC1c1nc(Cc2ccc(F)cc2)no1 (stereo not shown)	-8.666%
Cc1ccnc(C(NC(=O)c2oc(C)nc2C)C2CC2)n1 (stereo not shown)	2.351%

Repeated from the top, 5 entries:

structure,percent effect
OC[C@H]1CN(Cc2c(Cl)cncc2Cl)C[C@H]1CN1CCOCC1,-5.979%
Clc1ccc(C2(CNC3=NCCN3)CCCC2)cc1,0.727%
CCN1CC2(CCC1=O)CCN(CCOc1ccc(F)cc1)CC2,5.304%
Cc1nn(C)c(=O)c2nn(-c3cccc(Cl)c3)c(C)c12,0.2174%
O=C(c1cnccn1)N1CCN(CC2CC2)c2ncccc2C1,-1.606%

The values are deposited in ChEMBL (CHEMBL3988442, “University of Dundee, Small-Polar-MMV Screening Library” (2021)).